Source: article PMC7619463

Chains of the proteins cited; added tags and fusions are not shown.
UniProt Q5J8M3: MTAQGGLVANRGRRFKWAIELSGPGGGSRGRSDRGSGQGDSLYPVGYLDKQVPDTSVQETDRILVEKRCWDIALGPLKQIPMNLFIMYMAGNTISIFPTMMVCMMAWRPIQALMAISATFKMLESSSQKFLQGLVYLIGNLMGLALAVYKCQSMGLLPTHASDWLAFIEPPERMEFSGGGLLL

Target: EMC4 (human (endogenous in Flp-In T-REx 293)) (UniProt Q5J8M3)
Assay: cross-linking; 35S-labelled single-cysteine CLCN3 TMD-pair nascent chains translated in the presence of EMC3(216C) ER membranes; isolated membranes treated with 250 uM BMH on ice for 10 min; total products and non-denaturing FLAG immunoprecipitation of EMC (1% TX-100, 200 mM NaCl)

binding | Substance
binds weakly | CLCN3 TMD-pair single-cysteine variant, cysteine at a loop-proximal position of TMD1 (from UniProt P51790-1) (domain or fragment)
binds weakly | CLCN3 TMD-pair single-cysteine variant, cysteine at a loop-proximal position of TMD2 (from UniProt P51790-1) (domain or fragment)
binds weakly | CLCN3 TMD-pair single-cysteine variant, cysteine at position 172 in the translocated loop (from UniProt P51790-1) (domain or fragment)
binds weakly | CLCN3 TMD-pair single-cysteine variant, cysteine at position 187 in the translocated loop (from UniProt P51790-1) (domain or fragment)

These are yes or no findings as the source states them, for the method shown. In cells and extracts the contact can be indirect. A result given as binding can be weak or reduced; the word gives no strength.
